No constants are given. Whether binding was seen depends on the method and setting. In cells and extracts the contact can be indirect. Some binding calls cover weakened binding; strength is not graded here.

Amino acid sequences for entries named in this document (tags omitted). A change or cut given only in a name is not applied to a line headed by its entry. Chains listed by the source or under a name are the forms on record and can include a tag or linker.
UniProt Q07813: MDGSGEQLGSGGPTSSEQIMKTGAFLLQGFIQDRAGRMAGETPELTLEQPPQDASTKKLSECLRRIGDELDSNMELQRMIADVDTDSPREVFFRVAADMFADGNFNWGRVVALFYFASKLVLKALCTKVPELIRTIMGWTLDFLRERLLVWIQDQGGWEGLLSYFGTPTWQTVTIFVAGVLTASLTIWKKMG
HA-Bcl-xL mutant 1 (mt1), overexpressed in wt MEFs (Q07817-1, form named): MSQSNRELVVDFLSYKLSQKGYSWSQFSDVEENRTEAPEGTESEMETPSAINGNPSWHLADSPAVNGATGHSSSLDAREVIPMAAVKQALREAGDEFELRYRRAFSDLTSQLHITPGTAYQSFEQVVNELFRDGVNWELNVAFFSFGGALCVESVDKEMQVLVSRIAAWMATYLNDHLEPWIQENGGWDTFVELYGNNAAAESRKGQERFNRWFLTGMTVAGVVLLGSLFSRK
HA-Bcl-xL mutant 2 (mt2), overexpressed in wt MEFs (Q07817-1, form named): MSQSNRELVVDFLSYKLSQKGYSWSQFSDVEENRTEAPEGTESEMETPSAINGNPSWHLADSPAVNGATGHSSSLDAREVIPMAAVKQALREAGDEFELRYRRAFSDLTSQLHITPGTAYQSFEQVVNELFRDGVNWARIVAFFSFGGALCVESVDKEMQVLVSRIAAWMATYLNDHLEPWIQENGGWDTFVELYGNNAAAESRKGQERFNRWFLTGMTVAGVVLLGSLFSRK

Our source for the binding values is publication PMC4735924.

The test deals with Bax, endogenous in wt MEFs (mouse (endogenous in MEFs)) (UniProt Q07813). As to the kind of experiment: co-IP; lysates of wt MEFs overexpressing control vector or HA-Bcl-xL constructs (NP-40 buffer: 100 mM NaCl, 100 mM Tris pH 8.2, 0.5% NP-40); 500 ug total protein with anti-Bax antibody overnight at 4 °C, protein A/G Sepharose 2 h; blot for HA and Bax.

“HA-Bcl-xL (wild type), overexpressed in wt MEFs (from UniProt Q07817-1 1-233)”: the binding entry is “binds”.

“HA-Bcl-xL mutant 1 (mt1), overexpressed in wt MEFs (from UniProt Q07817-1 1-233)”: the binding result is on record as “no binding”.

“HA-Bcl-xL mutant 2 (mt2), overexpressed in wt MEFs (from UniProt Q07817-1 1-233)”: the binding entry is “no binding”.
